Some entries of the source have several records that differ or are many. This list holds those alone. There may be further records. Values that stand side by side do not match, cause unknown; dose, time, organism, isomer or construct need not be as stated for each record.
Molecular target: G2019S variant of human LRRK2 (G2019S-LRRK2) (Homo sapiens, UniProt Q5S007, G2019S)
Test: LRRK2 pSer935 quantitative western immunoblot in HEK293 cells stably overexpressing G2019S-LRRK2
Assay type: cell-based
Details: 2 h

Amino acid sequences for entries named in this document (tags omitted).
UniProt Q5S007, whole entry G2019S: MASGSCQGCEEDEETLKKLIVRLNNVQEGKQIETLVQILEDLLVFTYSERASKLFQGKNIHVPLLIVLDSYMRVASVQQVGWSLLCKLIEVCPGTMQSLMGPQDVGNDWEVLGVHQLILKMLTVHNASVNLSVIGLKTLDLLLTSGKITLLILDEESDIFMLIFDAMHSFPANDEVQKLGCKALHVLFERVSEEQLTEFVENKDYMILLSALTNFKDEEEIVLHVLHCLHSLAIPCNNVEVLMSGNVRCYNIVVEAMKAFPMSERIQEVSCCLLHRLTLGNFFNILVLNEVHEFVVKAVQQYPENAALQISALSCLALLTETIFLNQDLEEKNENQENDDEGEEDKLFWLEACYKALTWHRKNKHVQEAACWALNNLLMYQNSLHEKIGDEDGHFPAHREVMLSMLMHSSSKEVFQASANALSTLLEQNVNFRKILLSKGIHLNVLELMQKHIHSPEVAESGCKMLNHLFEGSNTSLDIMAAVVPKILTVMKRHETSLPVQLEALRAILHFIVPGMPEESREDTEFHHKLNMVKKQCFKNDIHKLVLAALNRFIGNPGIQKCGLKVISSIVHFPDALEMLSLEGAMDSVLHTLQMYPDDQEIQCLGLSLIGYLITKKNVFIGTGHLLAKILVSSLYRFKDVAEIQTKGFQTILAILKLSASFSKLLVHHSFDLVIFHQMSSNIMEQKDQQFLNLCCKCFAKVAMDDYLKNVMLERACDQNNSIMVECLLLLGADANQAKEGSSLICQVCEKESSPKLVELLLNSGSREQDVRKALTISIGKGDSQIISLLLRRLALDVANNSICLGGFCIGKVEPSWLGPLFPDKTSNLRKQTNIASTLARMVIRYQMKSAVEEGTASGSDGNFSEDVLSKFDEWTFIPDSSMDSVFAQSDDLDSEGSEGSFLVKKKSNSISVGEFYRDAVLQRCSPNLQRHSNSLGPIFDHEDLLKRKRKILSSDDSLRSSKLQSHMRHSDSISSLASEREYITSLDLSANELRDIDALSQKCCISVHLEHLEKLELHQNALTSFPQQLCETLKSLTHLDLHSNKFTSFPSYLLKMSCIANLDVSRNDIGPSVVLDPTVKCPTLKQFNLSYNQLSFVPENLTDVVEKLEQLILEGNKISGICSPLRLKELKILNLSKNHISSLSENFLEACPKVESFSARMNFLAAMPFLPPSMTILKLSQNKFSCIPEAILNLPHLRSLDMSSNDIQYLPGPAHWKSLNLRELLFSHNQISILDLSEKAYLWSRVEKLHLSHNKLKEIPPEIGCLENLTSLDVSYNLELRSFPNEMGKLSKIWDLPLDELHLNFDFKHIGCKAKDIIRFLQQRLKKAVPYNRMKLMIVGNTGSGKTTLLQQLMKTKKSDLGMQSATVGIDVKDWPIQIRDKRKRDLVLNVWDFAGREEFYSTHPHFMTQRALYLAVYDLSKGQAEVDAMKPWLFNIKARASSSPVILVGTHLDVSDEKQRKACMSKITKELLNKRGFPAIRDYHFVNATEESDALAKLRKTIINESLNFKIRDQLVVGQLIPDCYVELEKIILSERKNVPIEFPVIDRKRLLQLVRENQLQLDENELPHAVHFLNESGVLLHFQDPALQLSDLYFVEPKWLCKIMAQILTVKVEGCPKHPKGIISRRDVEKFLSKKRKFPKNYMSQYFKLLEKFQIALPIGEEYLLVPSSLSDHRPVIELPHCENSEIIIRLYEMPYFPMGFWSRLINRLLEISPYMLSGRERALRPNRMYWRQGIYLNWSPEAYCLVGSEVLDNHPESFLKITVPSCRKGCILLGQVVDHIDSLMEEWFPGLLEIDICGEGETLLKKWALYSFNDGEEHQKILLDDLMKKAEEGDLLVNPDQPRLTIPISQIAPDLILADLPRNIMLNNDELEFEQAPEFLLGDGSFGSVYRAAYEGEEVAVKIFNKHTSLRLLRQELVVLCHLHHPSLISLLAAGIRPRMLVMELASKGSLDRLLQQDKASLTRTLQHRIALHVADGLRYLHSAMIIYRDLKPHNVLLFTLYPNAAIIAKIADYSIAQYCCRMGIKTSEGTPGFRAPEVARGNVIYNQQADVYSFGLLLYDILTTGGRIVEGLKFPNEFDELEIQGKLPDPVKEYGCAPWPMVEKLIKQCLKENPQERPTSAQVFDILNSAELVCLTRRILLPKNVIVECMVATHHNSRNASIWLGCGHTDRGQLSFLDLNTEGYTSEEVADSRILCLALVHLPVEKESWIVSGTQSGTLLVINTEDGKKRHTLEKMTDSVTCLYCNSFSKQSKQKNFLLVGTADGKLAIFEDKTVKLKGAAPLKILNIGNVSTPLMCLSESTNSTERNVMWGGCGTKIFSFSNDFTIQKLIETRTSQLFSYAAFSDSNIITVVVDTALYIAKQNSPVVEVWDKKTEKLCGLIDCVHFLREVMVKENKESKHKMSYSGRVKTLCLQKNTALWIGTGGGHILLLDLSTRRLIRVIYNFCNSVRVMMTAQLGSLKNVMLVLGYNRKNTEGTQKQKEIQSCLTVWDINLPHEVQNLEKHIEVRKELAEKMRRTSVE

CC1=C(C(=O)Nc2ccc3[nH]nc(-c4ccnc(N5CCOCC5)c4)c3c2)C(C)(C)n2nnnc2N1C [EB-42168]
decrease in LRRK2 pSer935 levels (100 nM): over 50% and 65%
decrease in LRRK2 pSer935 levels (1 μM): full inhibition and 95%

Source: PMC10907374, “G2019S selective LRRK2 kinase inhibitor abrogates mitochondrial DNA damage” (NPJ Parkinson's Disease, 2024)
